Measured values as given in patent publication US10316335B2, “Methods and compositions for generating stable transfected cells” (MaxCyte, Inc., priority 2013, dated 2019).
At least one compound was matched to its structure with a doubt left.

Test system: CHO-S cells
Assay: Cell killing curve with G418 treatment
Type: cell-based
Conditions: 1.6 g/L G418 started 24 hours post electroporation

**Q.** With `CN[C@@H]1[C@@H](O)[C@@H](O[C@@H]2[C@@H](O)[C@H](O[C@H]3O[C@H]([C@@H](C)O)[C@@H](O)[C@H](O)[C@H]3N)[C@@H](N)C[C@H]2N)OC[C@]1(C)O` [G418] as the molecule, how does the “cell killing of untransfected cells” value (Untransfected cells) read?
**A.** completely killed at day 8

**Q.** And the “viability of transfected cells under selection” value (transfected cells, day 8)?
**A.** still have good amounts of viable transfected cells
